PubChem BioAssay AID602196 – INSERM – 2012
The whole screen tested about 23,000 reagents; below is an unselected part. Of all reagents, 455 (2%) got an active call. 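Active includes both protection and sensitisation; some change values fall well beyond the stated -50 to +50 range.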 Reagents against one gene are numbered here. Further read-outs or replicates are left out here. Not given: the amount of reagent.

Test: 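Modifiers of cisplatin sensitivity in A549 cells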
System: human A549 lung cancer cells
Reagents: siRNA pair against human genes
Time to read-out: 48 h transfection before cisplatin; time from cisplatin to read-out not stated
Conditions: cisplatin at a dose killing half of control-siRNA cells; exact dose and duration not given
Measured: 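Shift in cisplatin death relative to control siRNA, from -50 (all cells die) to +50 (no cells die); siRNAs harmful on their own scored 0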
Scale: two-siRNA summed score (-2 to +2): higher = both siRNAs protect from cisplatin killing; -2 means both sensitise; mean protection from cisplatin (shift in death) and protection from cisplatin (shift in death), siRNA C: higher = protection from cisplatin killing
Rule for the call: 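Each siRNA scores 0 if harmful alone by LDH or WST-1, otherwise +1 if it reduces and -1 if it increases cisplatin killing; a gene is active when both siRNAs agree (sum +2 or -2)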
Meaning of the calls: active = both siRNAs shift cisplatin killing the same way; inactive = no consistent shift, or siRNA harmful alone

Target gene | reagent no. | two-siRNA summed score (-2 to +2) | mean protection from cisplatin (shift in death) (%) | protection from cisplatin (shift in death), siRNA C (%) | outcome
AURKAIP1 (aurora kinase A interacting protein 1) | 1 | 1 | 9.5 | 4.5 | inactive
PLD1 (phospholipase D1) | 1 | -1 | -14.8 | -0.1 | inactive
POU2AF1 (POU class 2 homeobox associating factor 1) | 1 | 0 | 10 | 6.4 | inactive
MXRA5 (matrix remodeling associated 5) | 1 | 0 | -3 | -4.4 | inactive
LCAT (lecithin-cholesterol acyltransferase) | 1 | 0 | -16.8 | -19.6 | inactive
JTB (jumping translocation breakpoint) | 1 | 0 | 4.7 | -2.3 | inactive
PCGF5 (polycomb group ring finger 5) | 1 | 0 | -3 | -3.6 | inactive
DNAJC10 (DnaJ heat shock protein family (Hsp40) member C10) | 1 | 0 | -2.1 | -11.1 | inactive
RAC2 (Rac family small GTPase 2) | 1 | -1 | -24.6 | -34.4 | inactive
DDX49 (DEAD-box helicase 49) | 1 | 0 | 10.1 | 15.9 | inactive
GCGR (glucagon receptor) | 1 | 1 | 9.8 | 17.1 | inactive
LOC284134 | 1 | 0 | 6.9 | 12 | inactive
FXYD2 (FXYD domain containing ion transport regulator 2) | 1 | -1 | -6.6 | 3.1 | inactive
LOC387922 | 1 | 0 | 8.2 | 13.3 | inactive
GLRX (glutaredoxin) | 1 | -1 | -3.2 | -23 | inactive
UBAP1 (ubiquitin associated protein 1) | 1 | 0 | -7.3 | -1.1 | inactive
FUOM (fucose mutarotase) | 1 | 0 | 2.4 | -3.5 | inactive
CRB1 (crumbs cell polarity complex component 1) | 1 | 0 | -4.7 | -6.4 | inactive
SLC6A1 | 1 | 1 | 22.3 | 22.3 | inactive
PRDM7 (PR/SET domain 7) | 1 | 0 | 6.4 | 3.9 | inactive
IL27RA (interleukin 27 receptor subunit alpha) | 1 | 0 | -11 | 9.1 | inactive
ZNF770 (zinc finger protein 770) | 1 | 0 | 10.5 | 8.7 | inactive
KRABD3 (KRAB domain containing 3) | 1 | 0 | -10.6 | -16.8 | inactive
ME2 (malic enzyme 2) | 1 | 0 | -0.3 | -3.3 | inactive

Laid out differently: entries from further up.
Target gene	reagent no.	two-siRNA summed score (-2 to +2)	mean protection from cisplatin (shift in death) (%)	protection from cisplatin (shift in death), siRNA C (%)	outcome
JTB (jumping translocation breakpoint)	1	0	4.7	-2.3	inactive
PCGF5 (polycomb group ring finger 5)	1	0	-3	-3.6	inactive
DNAJC10 (DnaJ heat shock protein family (Hsp40) member C10)	1	0	-2.1	-11.1	inactive
RAC2 (Rac family small GTPase 2)	1	-1	-24.6	-34.4	inactive
DDX49 (DEAD-box helicase 49)	1	0	10.1	15.9	inactive
GCGR (glucagon receptor)	1	1	9.8	17.1	inactive
LOC284134	1	0	6.9	12	inactive
FXYD2 (FXYD domain containing ion transport regulator 2)	1	-1	-6.6	3.1	inactive
LOC387922	1	0	8.2	13.3	inactive
GLRX (glutaredoxin)	1	-1	-3.2	-23	inactive

Next reagents follow.
Target gene | reagent no. | two-siRNA summed score (-2 to +2) | mean protection from cisplatin (shift in death) (%) | protection from cisplatin (shift in death), siRNA C (%) | outcome
FSTL1 (follistatin like 1) | 1 | 0 | 6.6 | 1.9 | inactive
LTO1 (LTO1 maturation factor of ABCE1) | 1 | 0 | 18.9 | 20 | inactive
ARHGEF35 (Rho guanine nucleotide exchange factor 35) | 1 | 0 | 2.6 | -15.4 | inactive
MLH3 (mutL homolog 3) | 1 | 0 | -6.2 | -8.6 | inactive
PCDHGA11 (protocadherin gamma subfamily A, 11) | 1 | 1 | 10.1 | 25.7 | inactive
RPL32 (ribosomal protein L32) | 1 | 0 | 9.1 | 15.6 | inactive
GTF2A2 (general transcription factor IIA subunit 2) | 1 | 1 | 5.7 | -2.2 | inactive
DNAJC15 (DnaJ heat shock protein family (Hsp40) member C15) | 1 | 0 | 7.3 | 7.1 | inactive
RNF213 (ring finger protein 213) | 1 | 0 | -8.5 | -5.2 | inactive
RNF213 (ring finger protein 213) | 2 | 0 | -2.9 | -2.9 | inactive
HAPLN3 (hyaluronan and proteoglycan link protein 3) | 1 | 0 | 1.7 | 2.8 | inactive
LCE1B (late cornified envelope 1B) | 1 | 1 | 5.8 | 17.7 | inactive
RGS6 (regulator of G protein signaling 6) | 1 | -1 | -11.6 | 5.4 | inactive
BAIAP2 (BAR/IMD domain containing adaptor protein 2) | 1 | 1 | 11.6 | 5.7 | inactive
LOC442059 | 1 | 0 | 3 | 2.2 | inactive
WT1-AS (WT1 antisense RNA) | 1 | 0 | 8.5 | 12.3 | inactive
LOC441154 | 1 | 1 | 6.7 | 3 | inactive
CHST2 (carbohydrate sulfotransferase 2) | 1 | 0 | 0.6 | 5.5 | inactive
MFSD6 (major facilitator superfamily domain containing 6) | 1 | 0 | 8.3 | 26.6 | inactive
DYNC1H1 (dynein cytoplasmic 1 heavy chain 1) | 1 | 0 | 4.9 | 10.3 | inactive
CST11 (cystatin 11) | 1 | 0 | 1 | -4.2 | inactive
CCAR1 (cell division cycle and apoptosis regulator 1) | 1 | 0 | 1.8 | -2.9 | inactive
BPI (bactericidal permeability increasing protein) | 1 | -1 | -10.1 | -18.5 | inactive
RNF25 (ring finger protein 25) | 1 | 0 | -0.3 | -0.4 | inactive
LOC440228 | 1 | 0 | 15 | 13.2 | inactive
LOC388890 | 1 | 1 | 7.1 | -7.7 | inactive
PCDHA5 (protocadherin alpha 5) | 1 | 0 | 8.9 | 10.1 | inactive
CAMSAP2 | 1 | 0 | 16.8 | 48.5 | inactive
TP53BP2 (tumor protein p53 binding protein 2) | 1 | 0 | 8.8 | 8.5 | inactive
RASGRP1 (RAS guanyl releasing protein 1) | 1 | 1 | 10 | 4.5 | inactive
ZFYVE28 (zinc finger FYVE-type containing 28) | 1 | 0 | -2.4 | 3.1 | inactive
LINC00272 (long independently transcribed non-coding RNA 272) | 1 | 0 | 13.3 | 16.2 | inactive
LTB4R (leukotriene B4 receptor) | 1 | 1 | 9.1 | 24.9 | inactive
LEFTY2 (left-right determination factor 2) | 1 | 0 | -2.4 | -3.8 | inactive
PGRMC2 (progesterone receptor membrane component 2) | 1 | -1 | -5.8 | 9.7 | inactive
CCDC174 (coiled-coil domain containing 174) | 1 | 0 | 0.5 | -17.9 | inactive
SUSD6 (sushi domain containing 6) | 1 | 1 | 18 | 11.4 | inactive
EFR3B (EFR3 homolog B) | 1 | 0 | 4.3 | -2.3 | inactive
SCARF1 (scavenger receptor class F member 1) | 1 | -1 | -7.8 | 4.7 | inactive
PRDM15 (PR/SET domain 15) | 1 | 0 | -3.7 | 5 | inactive
ACSL4 (acyl-CoA synthetase long chain family member 4) | 1 | 0 | 1.6 | 0 | inactive
LOC345645 | 1 | -1 | -8.9 | -6.5 | inactive
TLR6 (toll like receptor 6) | 1 | -1 | -3.2 | 7.3 | inactive
LOC442506 | 1 | 0 | 4.5 | 5.1 | inactive
HEATR5A (HEAT repeat containing 5A) | 1 | 0 | -5.2 | -9 | inactive
NYX (nyctalopin) | 1 | 0 | 0.4 | 9 | inactive
LOC400781 | 1 | 0 | -9.1 | -19 | inactive
LOC340246 | 1 | 0 | 7.7 | 5 | inactive
AXDND1 (axonemal dynein light chain domain containing 1) | 1 | 2 | 18.3 | 19.6 | active
